Two substances from article PMC10157619 can be followed below.

Protein sequences, listed by entry. Tags and fused reporters are not part of them. Lines headed by an entry give the natural chain unless they say otherwise; changes in a name come on top. Chains listed by the source or under a name are the forms on record and can include a tag or linker.
JMJD1C (Q69ZK6, form named): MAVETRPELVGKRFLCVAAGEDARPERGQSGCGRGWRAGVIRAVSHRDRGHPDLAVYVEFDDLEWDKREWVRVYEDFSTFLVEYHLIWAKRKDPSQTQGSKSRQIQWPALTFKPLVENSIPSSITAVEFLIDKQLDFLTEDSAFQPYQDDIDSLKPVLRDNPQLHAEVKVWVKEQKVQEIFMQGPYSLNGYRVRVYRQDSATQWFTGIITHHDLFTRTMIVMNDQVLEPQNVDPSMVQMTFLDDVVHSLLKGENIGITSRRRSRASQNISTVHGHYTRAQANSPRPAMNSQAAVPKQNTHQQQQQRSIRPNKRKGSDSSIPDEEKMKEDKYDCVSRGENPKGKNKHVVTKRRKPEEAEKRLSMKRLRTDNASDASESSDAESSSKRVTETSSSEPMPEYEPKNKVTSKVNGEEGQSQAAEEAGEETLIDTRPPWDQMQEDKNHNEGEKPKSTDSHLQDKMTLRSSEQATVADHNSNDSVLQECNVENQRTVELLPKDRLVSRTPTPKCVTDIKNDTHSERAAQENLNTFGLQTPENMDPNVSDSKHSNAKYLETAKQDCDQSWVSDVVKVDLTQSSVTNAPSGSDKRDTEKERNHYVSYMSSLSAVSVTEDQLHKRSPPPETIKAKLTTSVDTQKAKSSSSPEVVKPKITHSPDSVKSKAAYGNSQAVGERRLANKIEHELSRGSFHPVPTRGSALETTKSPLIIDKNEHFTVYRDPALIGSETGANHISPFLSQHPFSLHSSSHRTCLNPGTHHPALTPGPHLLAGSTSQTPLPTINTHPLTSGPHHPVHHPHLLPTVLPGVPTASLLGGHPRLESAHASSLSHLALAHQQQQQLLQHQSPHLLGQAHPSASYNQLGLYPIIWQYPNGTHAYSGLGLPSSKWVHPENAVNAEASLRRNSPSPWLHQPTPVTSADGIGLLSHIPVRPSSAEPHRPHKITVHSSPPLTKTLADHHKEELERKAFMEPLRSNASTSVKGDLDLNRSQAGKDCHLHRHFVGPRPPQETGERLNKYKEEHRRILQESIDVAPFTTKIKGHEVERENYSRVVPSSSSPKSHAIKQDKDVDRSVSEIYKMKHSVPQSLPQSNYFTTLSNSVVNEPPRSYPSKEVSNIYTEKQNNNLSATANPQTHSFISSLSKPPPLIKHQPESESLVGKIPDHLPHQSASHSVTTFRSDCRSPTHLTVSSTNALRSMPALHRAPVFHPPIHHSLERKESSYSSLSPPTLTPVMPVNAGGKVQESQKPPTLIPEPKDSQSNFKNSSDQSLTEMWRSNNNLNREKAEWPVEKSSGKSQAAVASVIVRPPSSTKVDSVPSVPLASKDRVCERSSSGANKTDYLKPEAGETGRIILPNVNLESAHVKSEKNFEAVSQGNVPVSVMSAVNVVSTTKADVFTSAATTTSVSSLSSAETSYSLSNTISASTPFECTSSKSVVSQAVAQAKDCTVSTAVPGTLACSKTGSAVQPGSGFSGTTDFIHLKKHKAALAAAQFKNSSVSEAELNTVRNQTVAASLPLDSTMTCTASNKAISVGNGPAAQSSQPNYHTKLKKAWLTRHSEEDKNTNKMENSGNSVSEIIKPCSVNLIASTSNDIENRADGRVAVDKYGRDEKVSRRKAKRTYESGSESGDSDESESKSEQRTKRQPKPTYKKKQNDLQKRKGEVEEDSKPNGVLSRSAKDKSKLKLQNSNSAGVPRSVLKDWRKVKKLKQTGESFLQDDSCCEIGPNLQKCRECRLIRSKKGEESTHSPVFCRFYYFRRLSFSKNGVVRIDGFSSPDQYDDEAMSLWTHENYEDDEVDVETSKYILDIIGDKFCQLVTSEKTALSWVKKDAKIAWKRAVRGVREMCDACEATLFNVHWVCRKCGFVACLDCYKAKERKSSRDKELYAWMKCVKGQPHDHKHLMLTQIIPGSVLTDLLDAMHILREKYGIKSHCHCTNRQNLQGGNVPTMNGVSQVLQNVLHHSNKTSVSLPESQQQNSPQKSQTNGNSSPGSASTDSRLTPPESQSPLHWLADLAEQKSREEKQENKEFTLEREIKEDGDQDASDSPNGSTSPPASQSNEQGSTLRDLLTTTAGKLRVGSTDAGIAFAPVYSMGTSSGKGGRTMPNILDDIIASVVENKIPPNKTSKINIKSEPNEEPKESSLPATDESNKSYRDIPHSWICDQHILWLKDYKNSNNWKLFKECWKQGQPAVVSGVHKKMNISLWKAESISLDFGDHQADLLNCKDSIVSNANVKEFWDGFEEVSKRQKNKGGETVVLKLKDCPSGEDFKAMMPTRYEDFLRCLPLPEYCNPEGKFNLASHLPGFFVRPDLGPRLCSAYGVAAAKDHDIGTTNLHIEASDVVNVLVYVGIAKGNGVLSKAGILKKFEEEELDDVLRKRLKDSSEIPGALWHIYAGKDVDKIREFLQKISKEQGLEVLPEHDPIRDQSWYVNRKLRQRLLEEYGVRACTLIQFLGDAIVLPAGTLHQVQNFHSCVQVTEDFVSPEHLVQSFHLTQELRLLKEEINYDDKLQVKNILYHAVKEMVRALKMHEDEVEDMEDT
UniProt P10085: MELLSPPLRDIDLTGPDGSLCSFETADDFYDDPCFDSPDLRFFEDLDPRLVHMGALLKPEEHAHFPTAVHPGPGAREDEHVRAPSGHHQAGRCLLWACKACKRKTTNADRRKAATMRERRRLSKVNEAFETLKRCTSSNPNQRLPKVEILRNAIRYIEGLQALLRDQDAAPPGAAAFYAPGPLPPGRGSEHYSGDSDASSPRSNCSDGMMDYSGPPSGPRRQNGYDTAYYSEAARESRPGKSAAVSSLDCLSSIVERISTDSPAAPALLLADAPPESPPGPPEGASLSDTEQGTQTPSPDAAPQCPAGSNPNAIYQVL

Assay [1] deals with T1, Deltex2 (mouse (endogenous in C2C12)) (UniProt Q8R3P2).
T1 sequence: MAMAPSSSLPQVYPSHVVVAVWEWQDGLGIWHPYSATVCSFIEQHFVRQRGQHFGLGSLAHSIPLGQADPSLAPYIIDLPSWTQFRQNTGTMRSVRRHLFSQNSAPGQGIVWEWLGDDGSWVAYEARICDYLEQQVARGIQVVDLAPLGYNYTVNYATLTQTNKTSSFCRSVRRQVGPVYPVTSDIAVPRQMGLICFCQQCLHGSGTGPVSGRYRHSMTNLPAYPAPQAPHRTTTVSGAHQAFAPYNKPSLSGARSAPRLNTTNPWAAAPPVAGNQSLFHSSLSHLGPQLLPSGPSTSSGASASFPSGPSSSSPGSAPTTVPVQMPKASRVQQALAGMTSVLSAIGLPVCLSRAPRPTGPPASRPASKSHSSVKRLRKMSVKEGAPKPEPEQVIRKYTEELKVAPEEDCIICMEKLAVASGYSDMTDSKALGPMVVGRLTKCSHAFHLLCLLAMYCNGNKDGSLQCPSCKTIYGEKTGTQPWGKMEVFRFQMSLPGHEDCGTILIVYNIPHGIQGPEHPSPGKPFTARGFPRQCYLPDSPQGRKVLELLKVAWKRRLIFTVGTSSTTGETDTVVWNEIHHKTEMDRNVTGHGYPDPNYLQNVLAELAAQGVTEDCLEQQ
Put plainly: co-IP; Supplementary Figure S3C; cells and precipitating antibody not shown.

The target in assay [2] is T1, Deltex2 (mouse (endogenous in C2C12)). Kind of assay: co-IP; lysates of C2C12 cells differentiated for 1 d; Dynabeads Protein G coated with anti-Deltex2 or anti-MyoD antibody, lysate incubated overnight at 4°C, 3 washes; western blot. On the technique in general: A western blot detects proteins with antibodies after separation by electrophoresis.

These are yes or no findings as the source states them, for the method shown. Binding seen in cells or lysates may run through a third protein. Some results given as binding are weak or reduced against the parent protein; the word gives no strength.

JMJD1C (from UniProt Q69ZK6 1-2531): the binding result in assay [1] was “binds”. Regarding MyoD (from UniProt P10085 1-318), in assay [2], the binding entry is “binds”.
